Experimental data: PubChem BioAssay AID652272 (Drosophila RNAi Screening Center, 2013)
Assay: 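Genes whose knock-down decreases or increases Hedgehog reporter output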 (primary screen). System: Drosophila clone 8 (Cl8) cells. Knock-down reagent: long dsRNA against Drosophila genes. Read-out: 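Firefly light from a Hedgehog-responsive ptc promoter reporter and Renilla reference light, both read on a plate reader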. Scale: firefly Hh reporter signal: higher = more ptc reporter light; Renilla reference signal: higher = more Renilla control light. Rule for the call: 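Called a hit if the two-replicate mean z-score lies below -2 or above +3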. Meaning of the calls: active = hit: reporter lowered or raised; inactive = not a hit.
The deposit covers about 21,000 reagents; this is an unselected part of those that have a named target and a result. In the full data, 503 (2.4%) were called active. 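Raw plate light values, not normalised; calls rest on replicate z-scores that were not deposited; hits include reporter decreases as well as increases.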 A plus sign joins genes that one reagent is predicted to hit. Reagent sequences are not shown. The record does not give: the amount of reagent, the time to read-out.

After knock-down of CG10324 [DRSC14230], the screen gave firefly Hh reporter signal, replicate 1 = 84251; firefly Hh reporter signal, replicate 2 = 99388; Renilla reference signal, replicate 1 = 2539; Renilla reference signal, replicate 2 = 2886; inactive. Naglu [DRSC02267] scored firefly Hh reporter signal, replicate 1 = 91264; firefly Hh reporter signal, replicate 2 = 81529; Renilla reference signal, replicate 1 = 3580; Renilla reference signal, replicate 2 = 2165; inactive. Silencing of Hem [DRSC11865] gave: firefly Hh reporter signal, replicate 1 = 74202; firefly Hh reporter signal, replicate 2 = 68109; Renilla reference signal, replicate 1 = 3787; Renilla reference signal, replicate 2 = 3056; inactive. Silencing of CG15139 (retired record) [DRSC02439] resulted in: firefly Hh reporter signal, replicate 1 = 82896; firefly Hh reporter signal, replicate 2 = 44659; Renilla reference signal, replicate 1 = 3139; Renilla reference signal, replicate 2 = 5267; active. Against Obp99d [DRSC15046] the deposit lists firefly Hh reporter signal, replicate 1 = 58986; firefly Hh reporter signal, replicate 2 = 1.30e5; Renilla reference signal, replicate 1 = 2341; Renilla reference signal, replicate 2 = 3818; inactive. Against ringer [DRSC10455] the deposit lists firefly Hh reporter signal, replicate 1 = 83380; Renilla reference signal, replicate 1 = 3483; Renilla reference signal, replicate 2 = 3329; active.

Mkp3 [DRSC10084] scored firefly Hh reporter signal, replicate 1 = 1.18e5; firefly Hh reporter signal, replicate 2 = 83433; Renilla reference signal, replicate 1 = 5066; Renilla reference signal, replicate 2 = 3168; inactive. Silencing of Mkp3 [DRSC10085] resulted in: firefly Hh reporter signal, replicate 1 = 77077; firefly Hh reporter signal, replicate 2 = 80514; Renilla reference signal, replicate 1 = 2840; Renilla reference signal, replicate 2 = 3128; inactive. After knock-down of CG31231 [DRSC13308], the screen gave firefly Hh reporter signal, replicate 1 = 56033; firefly Hh reporter signal, replicate 2 = 1.73e5; Renilla reference signal, replicate 1 = 8681; Renilla reference signal, replicate 2 = 3600; inactive. For CG18518 [DRSC01509], the entry reads firefly Hh reporter signal, replicate 1 = 82416; firefly Hh reporter signal, replicate 2 = 1.74e5; Renilla reference signal, replicate 1 = 2321; Renilla reference signal, replicate 2 = 8192; inactive. For CG34248 [DRSC09426] the deposit lists firefly Hh reporter signal, replicate 1 = 2.25e5; Renilla reference signal, replicate 1 = 4899; inactive.

Reprinted from the listing for reference:
CG31231 [DRSC13308]: firefly Hh reporter signal, replicate 1 = 56033; firefly Hh reporter signal, replicate 2 = 1.73e5; Renilla reference signal, replicate 1 = 8681; Renilla reference signal, replicate 2 = 3600; outcome = inactive
CG18518 [DRSC01509]: firefly Hh reporter signal, replicate 1 = 82416; firefly Hh reporter signal, replicate 2 = 1.74e5; Renilla reference signal, replicate 1 = 2321; Renilla reference signal, replicate 2 = 8192; outcome = inactive

The listing continues.
Knock-down of MED28 [DRSC15721] resulted in: firefly Hh reporter signal, replicate 1 = 6.25e5; firefly Hh reporter signal, replicate 2 = 75738; Renilla reference signal, replicate 1 = 32416; Renilla reference signal, replicate 2 = 410; inactive. Against CG15706 [DRSC06577], the values are firefly Hh reporter signal, replicate 1 = 66025; firefly Hh reporter signal, replicate 2 = 36592; Renilla reference signal, replicate 1 = 1781; Renilla reference signal, replicate 2 = 2560; inactive. Knock-down of CG13559 [DRSC04197] came out at: firefly Hh reporter signal, replicate 1 = 78784; firefly Hh reporter signal, replicate 2 = 69827; Renilla reference signal, replicate 1 = 2294; Renilla reference signal, replicate 2 = 5798; inactive. With knock-down of Rab9D + Rab9Fa + Rab9E [DRSC19853] the results were firefly Hh reporter signal, replicate 1 = 76560; firefly Hh reporter signal, replicate 2 = 1.51e5; Renilla reference signal, replicate 1 = 1878; Renilla reference signal, replicate 2 = 5398; inactive. After knock-down of Fdh [DRSC16670] the results were firefly Hh reporter signal, replicate 1 = 1.50e5; firefly Hh reporter signal, replicate 2 = 94584; Renilla reference signal, replicate 1 = 4715; Renilla reference signal, replicate 2 = 3537; inactive. trr [DRSC18845] gave firefly Hh reporter signal, replicate 1 = 58625; firefly Hh reporter signal, replicate 2 = 77878; Renilla reference signal, replicate 1 = 1180; Renilla reference signal, replicate 2 = 1667; inactive.

Depletion of Nf-YC [DRSC18272] gave: firefly Hh reporter signal, replicate 1 = 36754; firefly Hh reporter signal, replicate 2 = 38902; Renilla reference signal, replicate 1 = 1700; Renilla reference signal, replicate 2 = 2432; inactive. Muc68Ca [DRSC10312] scored firefly Hh reporter signal, replicate 1 = 4.62e5; firefly Hh reporter signal, replicate 2 = 65590; Renilla reference signal, replicate 1 = 2295; Renilla reference signal, replicate 2 = 2295; inactive. Against Muc68Ca [DRSC10313], the entry reads firefly Hh reporter signal, replicate 1 = 43971; firefly Hh reporter signal, replicate 2 = 40930; firefly Hh reporter signal, replicate 3 = 85025; Renilla reference signal, replicate 1 = 4483; Renilla reference signal, replicate 2 = 5932; inactive. Against CG10011 [DRSC14174], the entry reads firefly Hh reporter signal, replicate 1 = 77858; firefly Hh reporter signal, replicate 2 = 78743; Renilla reference signal, replicate 1 = 1840; Renilla reference signal, replicate 2 = 2049; inactive.
